Source: PMC5566888

T1: FtsH2-FLAG (Synechocystis sp. PCC 6803 FtsH2 with a C-terminal 3xFLAG tag) (Synechocystis sp. PCC 6803) (UniProt Q55700)
T1 sequence: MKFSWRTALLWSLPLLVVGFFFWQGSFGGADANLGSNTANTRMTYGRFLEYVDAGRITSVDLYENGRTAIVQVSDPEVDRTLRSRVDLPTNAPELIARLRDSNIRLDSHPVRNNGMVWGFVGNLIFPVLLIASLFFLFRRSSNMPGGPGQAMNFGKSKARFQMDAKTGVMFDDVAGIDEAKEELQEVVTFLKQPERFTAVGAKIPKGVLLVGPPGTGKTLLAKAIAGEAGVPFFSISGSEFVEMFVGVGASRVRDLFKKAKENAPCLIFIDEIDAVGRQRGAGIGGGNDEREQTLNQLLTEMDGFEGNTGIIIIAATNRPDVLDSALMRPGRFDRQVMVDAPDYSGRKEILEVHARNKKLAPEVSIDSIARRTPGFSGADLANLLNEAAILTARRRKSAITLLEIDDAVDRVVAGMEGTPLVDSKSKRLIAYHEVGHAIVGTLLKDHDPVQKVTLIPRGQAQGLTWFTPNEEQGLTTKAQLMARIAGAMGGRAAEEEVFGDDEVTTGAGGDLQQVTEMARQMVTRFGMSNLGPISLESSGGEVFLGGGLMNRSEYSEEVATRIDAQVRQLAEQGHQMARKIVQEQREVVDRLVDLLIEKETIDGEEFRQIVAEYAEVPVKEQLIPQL

T2: Psb29-FLAG (Synechocystis sp. PCC 6803 Psb29 with a C-terminal 3xFLAG tag) (Synechocystis sp. PCC 6803) (UniProt P73956)
T2 sequence: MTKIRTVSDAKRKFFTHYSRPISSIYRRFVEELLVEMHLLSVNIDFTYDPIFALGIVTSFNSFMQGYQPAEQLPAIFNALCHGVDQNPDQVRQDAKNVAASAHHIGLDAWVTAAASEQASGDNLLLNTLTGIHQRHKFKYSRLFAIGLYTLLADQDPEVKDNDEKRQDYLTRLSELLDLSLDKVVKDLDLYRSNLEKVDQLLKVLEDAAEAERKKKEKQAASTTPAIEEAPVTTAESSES

B1: FtsH3 (Synechocystis sp. PCC 6803) (enzyme, UniProt P72991 1-616)
chain: MSKNNKKWRNAGLYALLLIVVLALASAFFDRPTQTRETLSYSDFVNRVEANQIERVNLSADRTQAQVPNPSGGPPYLVNLPNDPDLINILTQHNVDIAVQPQSDEGFWFRIASTLFLPILLLVGIFFLFRRAQSGPGSQAMNFGKSKARVQMEPQTQVTFGDVAGIEQAKLELTEVVDFLKNADRFTELGAKIPKGVLLVGPPGTGKTLLAKAVAGEAGVPFFSISGSEFVEMFVGVGASRVRDLFEQAKANAPCIVFIDEIDAVGRQRGAGLGGGNDEREQTLNQLLTEMDGFEGNTGIIIVAATNRPDVLDSALMRPGRFDRQVVVDRPDYAGRREILNVHARGKTLSQDVDLDKIARRTPGFTGADLSNLLNEAAILAARRNLTEISMDEVNDAIDRVLAGPEKKNRVMSEKRKTLVAYHEAGHALVGALMPDYDPVQKISIIPRGRAGGLTWFTPSEDRMESGLYSRSYLQNQMAVALGGRIAEEIIFGEEEVTTGASNDLQQVARVARQMVTRFGMSDRLGPVALGRQGGGVFLGRDIASDRDFSDETAAAIDEEVSQLVDQAYQRAKQVLVENRGILDQLAEILVEKETVDSEELQTLLANNNAKLALLV
B2: Psb29 (Synechocystis sp. PCC 6803), endogenous (protein, UniProt P73956 1-240)
chain: T2 sequence
B3: FtsH2 (Synechocystis sp. PCC 6803) (enzyme, UniProt Q55700 1-627)
chain: T1 sequence
B4: Phb3 (protein, UniProt P72655 1-321)
chain: MEAFFLFFLVFFGSAIGTSVKIVNEKNEYLVERLGSYNKKLTPGLNFTVPILDRVVFKQTTREKVIDIPPQSCITKDNVAITADAVVYWRIIDMEKAYYKVENLQSAMVNLVLTQIRSEIGKLELDQTFTARTEINELLLRELDISTDPWGVKVTRVELRDIMPSKAVLDSMELQMTAERKKRAAILTSEGQRDSAINSAQGDAQARVLEAEAKKKAAILNAEAEQQKKVLEAKATAEALSILTEKLSSDNHAREALQFLLAQQYLNMGTTIGSSDSSKVMFLDPRNILSTLEGVRSIVGDGALDEGLEAALNKVDRHRAV
B5: FtsH1 (Synechocystis sp. PCC 6803) (enzyme, UniProt P73179 1-665)
chain: MSHRPRSDRHSFSSPSRFWHRLGMGLLVAGTLALPVSTLAQEGGEGAQPKASPSPIQSPNSSNGEATPRSFFNSGSPRSAEPKMNYGQLIDAIKANQVAKVEVDTNRRQAIVTLKDAPPGSKPQTVQLLDNNPELLNLLRSRSETIDLDINRTPDNSALYGLLTNLLVVAILIGLVVMVVRRSANASGQAMSFGKSKARFQMEAKTGVGFDDVAGIDEAKEELQEVVTFLKQPEKFTAIGAKIPRGVLLIGPPGTGKTLLAKAIAGEAGVPFFSISGSEFVEMFVGVGASRVRDLFKKAKENAPCLVFIDEIDAVGRQRGVGYGGGNDEREQTLNQLLTEMDGFEGNSGIIVIAATNRPDVLDLALLRPGRFDRQVTVDYPDVQGRELILAIHAQNKKLHEEVQLAAIARRTPGFTGADLANVLNEAAIFTARRRKEAITMAEVNDAIDRVVAGMEGTPLVDSKSKRLIAYHEVGHALIGTLCPGHDPVEKVTLIPRGQAQGLTWFTPDEDQSLMTRNQMIARIAGLLGGRVAEEVIFGDDEVTTGAGNDIEKITYLARQMVTKLGMSSLGLVALEEEGDRNFSGGDWGKRSEYSEDIAARIDREIQAIVTAAHQRATRIIEENRNLMDLLVDALIDQETIEGEHFRQLVESYQQSQKQPALAGK

Each molecule was assayed against T1, FtsH2-FLAG (Synechocystis sp. PCC 6803 FtsH2 with a C-terminal 3xFLAG tag) (Synechocystis sp. PCC 6803) (assay: affinity purification with mass spectrometry; anti-FLAG immunoaffinity purification of FtsH2-FLAG from detergent-solubilised membranes; 2D gel stained with SYPRO Orange; proteins detected by mass spectrometry).

Row | binding | Molecule
1 | binds | B1
2 | binds | B2

What follows are molecules tested against T2, Psb29-FLAG (Synechocystis sp. PCC 6803 Psb29 with a C-terminal 3xFLAG tag) (Synechocystis sp. PCC 6803) (assay: affinity purification with mass spectrometry; anti-FLAG immunoaffinity purification of Psb29-FLAG from detergent-solubilised membranes; 2D clear-native/SDS-PAGE; proteins detected by Coomassie staining, immunoblotting and mass spectrometry).

Row | binding | Molecule
3 | binds | prohibitin (Phb1)
4 | binds | B1
5 | binds | B3
6 | binds | B4
7 | binds | B5

Results are given in words; binding and its absence hold for the method and conditions named. Binding seen in cells or lysates may run through a third protein. Here binding means that the protein was enriched with, or labelled near, the bait; the list need not be complete. Tags and fused reporters may be left off the sequences shown.
